This note sets out measurements from patent US20210171576A1, “METHODS FOR TREATING CANCER WITH ACYLDEPSIPEPTIDE ANALOGS” (priority 2018, published 2021).

The series concerns mitochondrial proteins of HEK293 T-REx cells. The series can be described thus: Mitochondrial proteome profiling for WT and CLPP^−/− (fold change CLPP^−/−/WT). The settings on record: fold change of mitochondrial protein detected in CLPP knockout compared to WT HEK293 T-REx cells; MaxQuant total peptide ion intensity. Also noted: species or system human.

B1: COQ5 (protein, UniProt Q5HYK3 43-327, looked up)
2-methoxy-6-polyprenyl-1,4-ben …: LSQEKRAAETHFGFETVSEEEKGGKVYQVFESVAKKYDVMNDMMSLGIHRVWKDLLLWKMHPLPGTQLLDVAGGTGDIAFRFLNYVQSQHQRKQKRQLRAQQNLSWEEIAKEYQNEEDSLGGSRVVVCDINKEMLKVGKQKALAQGYRAGLAWVLGDAEELPFDDDKFDIYTIAFGIRNVTHIDQALQEAHRVLKPGGRFLCLEFSQVNNPLISRLYDLYSFQVIPVLGEVIAGDWKSYQYLVESIRRFPSQEEFKDMIEDAGFHKVTYESLTSGIVAIHSGFKL
For B1, the “Avg. fold change (CLPP KO/WT)” value is on record as −1.19.

B2: ETFA (protein, UniProt P13804 20-333, looked up)
Electron transfer …: QSTLVIAEHANDSLAPITLNTITAATRLGGEVSCLVAGTKCDKVAQDLCKVAGIAKVLVAQHDVYKGLLPEELTPLILATQKQFNYTHICAGASAFGKNLLPRVAAKLEVAPISDIIAIKSPDTFVRTIYAGNALCTVKCDEKVKVFSVRGTSFDAAATSGGSASSEKASSTSPVEISEWLDQKLTKSDRPELTGAKVVVSGGRGLKSGENFKLLYDLADQLHAAVGASRAAVDAGFVPNDMQVGQTGKIVAPELYIAVGISGAIQHLAGMKDSKTIVAINKDPEAPIFQVADYGIVADLFKVVPEMTEILKKK
For B2, the “Avg. fold change (CLPP KO/WT)” value is listed as 1.06.

B3: DDX28 (protein, UniProt Q9NUL7 1-540, looked up)
Probable ATP-dependent RNA …: MALTRPVRLFSLVTRLLLAPRRGLTVRSPDEPLPVVRIPVALQRQLEQRQSRRRNLPRPVLVRPGPLLVSARRPELNQPARLTLGRWERAPLASQGWKSRRARRDHFSIERAQQEAPAVRKLSSKGSFADLGLEPRVLHALQEAAPEVVQPTTVQSSTIPSLLRGRHVVCAAETGSGKTLSYLLPLLQRLLGQPSLDSLPIPAPRGLVLVPSRELAQQVRAVAQPLGRSLGLLVRDLEGGHGMRRIRLQLSRQPSADVLVATPGALWKALKSRLISLEQLSFLVLDEADTLLDESFLELVDYILEKSHIAEGPADLEDPFNPKAQLVLVGATFPEGVGQLLNKVASPDAVTTITSSKLHCIMPHVKQTFLRLKGADKVAELVHILKHRDRAERTGPSGTVLVFCNSSSTVNWLGYILDDHKIQHLRLQGQMPALMRVGIFQSFQKSSRDILLCTDIASRGLDSTGVELVVNYDFPPTLQDYIHRAGRVGRVGSEVPGTVISFVTHPWDVSLVQKIELAARRRRSLPGLASSVKEPLPQAT
Take B3: the “Avg. fold change (CLPP KO/WT)” value was −1.36.

B4: FDXR (protein, UniProt P22570 33-491, looked up)
NADPH:adrenodoxin …: STQEKTPQICVVGSGPAGFYTAQHLLKHPQAHVDIYEKQPVPFGLVRFGVAPDHPEVKNVINTFTQTAHSGRCAFWGNVEVGRDVTVPELREAYHAVVLSYGAEDHRALEIPGEELPGVCSARAFVGWYNGLPENQELEPDLSCDTAVILGQGNVALDVARILLTPPEHLERTDITKAALGVLRQSRVKTVWLVGRRGPLQVAFTIKELREMIQLPGARPILDPVDFLGLQDKIKEVPRPRKRLTELLLRTATEKPGPAEAARQASASRAWGLRFFRSPQQVLPSPDGRRAAGVRLAVTRLEGVDEATRAVPTGDMEDLPCGLVLSSIGYKSRPVDPSVPFDSKLGVIPNVEGRVMDVPGLYCSGWVKRGPTGVIATTMTDSFLTGQMLLQDLKAGLLPSGPRPGYAAIQALLSSRGVRPVSFSDWEKLDAEEVARGQGTGKPREKLVDPQEMLRLLGH
In the case of B4, the “Avg. fold change (CLPP KO/WT)” value was −1.17.

B5: ETFB (protein, UniProt P38117 2-255, looked up)
Electron transfer …: AELRVLVAVKRVIDYAVKIRVKPDRTGVVTDGVKHSMNPFCEIAVEEAVRLKEKKLVKEVIAVSCGPAQCQETIRTALAMGADRGIHVEVPPAEAERLGPLQVARVLAKLAEKEKVDLVLLGKQAIDDDCNQTGQMTAGFLDWPQGTFASQVTLEGDKLKVEREIDGGLETLRLKLPAVVTADLRLNEPRYATLPNIMKAKKKKIEVIKPGDLGVDLTSKLSVISVEDPPQRTAGVKVETTEDLVAKLKEIGRI
Consider B5, for which the “Avg. fold change (CLPP KO/WT)” value is given as −1.46.

B6: CYC1 (protein, UniProt P08574 85-325, looked up)
Cytochrome c1, heme protein, …: SDLELHPPSYPWSHRGLLSSLDHTSIRRGFQVYKQVCASCHSMDFVAYRHLVGVCYTEDEAKELAAEVEVQDGPNEDGEMFMRPGKLFDYFPKPYPNSEAARAANNGALPPDLSYIVRARHGGEDYVFSLLTGYCEPPTGVSLREGLYFNPYFPGQAIAMAPPIYTDVLEFDDGTPATMSQIAKDVCTFLRWASEPEHDHRKRMGLKMLMMMALLVPLVYTIKRHKWSVLKSRKLAYRPPK
On to B6, for which the “Avg. fold change (CLPP KO/WT)” value is on record as 1.32.

B7: FH (protein, UniProt P07954 45-510, looked up)
Fumarate hydratase, …: ASQNSFRIEYDTFGELKVPNDKYYGAQTVRSTMNFKIGGVTERMPTPVIKAFGILKRAAAEVNQDYGLDPKIANAIMKAADEVAEGKLNDHFPLVVWQTGSGTQTNMNVNEVISNRAIEMLGGELGSKIPVHPNDHVNKSQSSNDTFPTAMHIAAAIEVHEVLLPGLQKLHDALDAKSKEFAQIIKIGRTHTQDAVPLTLGQEFSGYVQQVKYAMTRIKAAMPRIYELAAGGTAVGTGLNTRIGFAEKVAAKVAALTGLPFVTAPNKFEALAAHDALVELSGAMNTTACSLMKIANDIRFLGSGPRSGLGELILPENEPGSSIMPGKVNPTQCEAMTMVAAQVMGNHVAVTVGGSNGHFELNVFKPMMIKNVLHSARLLGDASVSFTENCVVGIQANTERINKLMNESLMLVTALNPHIGYDKAAKIAKTAHKNGSTLKETAIELGYLTAEQFDEWVKPKDMLGPK
Consider B7, for which the “Avg. fold change (CLPP KO/WT)” value was −1.39.

B8: ECH1 (protein, UniProt Q13011 34-328, looked up)
Delta(3,5)-Delta(2,4)-dienoyl- …: TGSSAQEEASGVALGEAPDHSYESLRVTSAQKHVLHVQLNRPNKRNAMNKVFWREMVECFNKISRDADCRAVVISGAGKMFTAGIDLMDMASDILQPKGDDVARISWYLRDIITRYQETFNVIERCPKPVIAAVHGGCIGGGVDLVTACDIRYCAQDAFFQVKEVDVGLAADVGTLQRLPKVIGNQSLVNELAFTARKMMADEALGSGLVSRVFPDKEVMLDAALALAAEISSKSPVAVQSTKVNLLYSRDHSVAESLNYVASWNMSMLQTQDLVKSVQATTENKELKTVTFSKL
In the case of B8, the “Avg. fold change (CLPP KO/WT)” value came out at 1.33.

B9: CYB5R3 (protein, UniProt P00387 2-301, looked up)
NADH-cytochrome b5 reductase 3: GAQLSTLGHMVLFPVWFLYSLLMKLFQRSTPAITLESPDIKYPLRLIDREIISHDTRRFRFALPSPQHILGLPVGQHIYLSARIDGNLVVRPYTPISSDDDKGFVDLVIKVYFKDTHPKFPAGGKMSQYLESMQIGDTIEFRGPSGLLVYQGKGKFAIRPDKKSNPIIRTVKSVGMIAGGTGITPMLQVIRAIMKDPDDHTVCHLLFANQTEKDILLRPELEELRNKHSARFKLWYTLDRAPEAWDYGQGFVNEEMIRDHLPPPEEEPLVLMCGPPPMIQYACLPNLDHVGHPTERCFVF
As for B9, the “Avg. fold change (CLPP KO/WT)” value is given as −1.20.

B10: DLAT (protein, UniProt P10515 87-647, looked up)
Dihydrolipoyllysine-residue …: SLPPHQKVPLPSLSPTMQAGTIARWEKKEGDKINEGDLIAEVETDKATVGFESLEECYMAKILVAEGTRDVPIGAIICITVGKPEDIEAFKNYTLDSSAAPTPQAAPAPTPAATASPPTPSAQAPGSSYPPHMQVLLPALSPTMTMGTVQRWEKKVGEKLSEGDLLAEIETDKATIGFEVQEEGYLAKILVPEGTRDVPLGTPLCIIVEKEADISAFADYRPTEVTDLKPQVPPPTPPPVAAVPPTPQPLAPTPSAPCPATPAGPKGRVFVSPLAKKLAVEKGIDLTQVKGTGPDGRITKKDIDSFVPSKVAPAPAAVVPPTGPGMAPVPTGVFTDIPISNIRRVIAQRLMQSKQTIPHYYLSIDVNMGEVLLVRKELNKILEGRSKISVNDFIIKASALACLKVPEANSSWMDTVIRQNHVVDVSVAVSTPAGLITPIVFNAHIKGVETIANDVVSLATKAREGKLQPHEFQGGTFTISNLGMFGIKNFSAIINPPQACILAIGASEDKLVPADNEKGFDVASMMSVTLSCDHRVVDGAVGAQWLAEFRKYLEKPITMLL
As to B10, the “Avg. fold change (CLPP KO/WT)” value is given as −1.43.

B11: DHX30 (protein, UniProt Q7L2E3 1-1194, looked up)
ATP-dependent RNA helicase …: MFSLDSFRKDRAQHRQRQCKLPPPRLPPMCVNPTPGGTISRASRDLLKEFPQPKNLLNSVIGRALGISHAKDKLVYVHTNGPKKKKVTLHIKWPKSVEVEGYGSKKIDAERQAAAAACQLFKGWGLLGPRNELFDAAKYRVLADRFGSPADSWWRPEPTMPPTSWRQLNPESIRPGGPGGLSRSLGREEEEDEEEELEEGTIDVTDFLSMTQQDSHAPLRDSRGSSFEMTDDDSAIRALTQFPLPKNLLAKVIQIATSSSTAKNLMQFHTVGTKTKLSTLTLLWPCPMTFVAKGRRKAEAENKAAALACKKLKSLGLVDRNNEPLTHAMYNLASLRELGETQRRPCTIQVPEPILRKIETFLNHYPVESSWIAPELRLQSDDILPLGKDSGPLSDPITGKPYVPLLEAEEVRLSQSLLELWRRRGPVWQEAPQLPVDPHRDTILNAIEQHPVVVISGDTGCGKTTRIPQLLLERYVTEGRGARCNVIITQPRRISAVSVAQRVSHELGPSLRRNVGFQVRLESKPPSRGGALLFCTVGILLRKLQSNPSLEGVSHVIVDEVHERDVNTDFLLILLKGLQRLNPALRLVLMSATGDNERFSRYFGGCPVIKVPGFMYPVKEHYLEDILAKLGKHQYLHRHRHHESEDECALDLDLVTDLVLHIDARGEPGGILCFLPGWQEIKGVQQRLQEALGMHESKYLILPVHSNIPMMDQKAIFQQPPVGVRKIVLATNIAETSITINDIVHVVDSGLHKEERYDLKTKVSCLETVWVSRANVIQRRGRAGRCQSGFAYHLFPRSRLEKMVPFQVPEILRTPLENLVLQAKIHMPEKTAVEFLSKAVDSPNIKAVDEAVILLQEIGVLDQREYLTTLGQRLAHISTDPRLAKAIVLAAIFRCLHPLLVVVSCLTRDPFSSSLQNRAEVDKVKALLSHDSGSDHLAFVRAVAGWEEVLRWQDRSSRENYLEENLLYAPSLRFIHGLIKQFSENIYEAFLVGKPSDCTLASAQCNEYSEEEELVKGVLMAGLYPNLIQVRQGKVTRQGKFKPNSVTYRTKSGNILLHKSTINREATRLRSRWLTYFMAVKSNGSVFVRDSSQVHPLAVLLLTDGDVHIRDDGRRATISLSDSDLLRLEGDSRTVRLLKELRRALGRMVERSLRSELAALPPSVQEEHGQLLALLAELLRGPCGSFDVRKTADD
Take B11: the “Avg. fold change (CLPP KO/WT)” value is −1.19.

B12: DARS2 (protein, UniProt Q6PI48 48-645, looked up)
Aspartate--tRNA ligase, …: VVRTNTCGELRSSHLGQEVTLCGWIQYRRQNTFLVLRDFDGLVQVIIPQDESAASVKKILCEAPVESVVQVSGTVISRPAGQENPKMPTGEIEIKVKTAELLNACKKLPFEIKNFVKKTEALRLQYRYLDLRSFQMQYNLRLRSQMVMKMREYLCNLHGFVDIETPTLFKRTPGGAKEFLVPSREPGKFYSLPQSPQQFKQLLMVGGLDRYFQVARCYRDEGSRPDRQPEFTQIDIEMSFVDQTGIQSLIEGLLQYSWPNDKDPVVVPFPTMTFAEVLATYGTDKPDTRFGMKIIDISDVFRNTEIGFLQDALSKPHGTVKAICIPEGAKYLKRKDIESIRNFAADHFNQEILPVFLNANRNWNSPVANFIMESQRLELIRLMETQEEDVVLLTAGEHNKACSLLGKLRLECADLLETRGVVLRDPTLFSFLWVVDFPLFLPKEENPRELESAHHPFTAPHPSDIHLLYTEPKKARSQHYDLVLNGNEIGGGSIRIHNAELQRYILATLLKEDVKMLSHLLQALDYGAPPHGGIALGLDRLICLVTGSPSIRDVIAFPKSFRGHDLMSNTPDSVPPEELKPYHIRVSKPTDSKAERAH
Turning to B12, the “Avg. fold change (CLPP KO/WT)” value is listed as −1.07.
